Reference: PubChem BioAssay AID1259286 (Sanger Institute, 2017)
The deposit covers 794 reagents; shown is a random part of them. Of all reagents, 17 (2.1%) are marked active. 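Calls use knock-down alone only; synergy above 0.15 marked separately; viability seems capped at control level; exposure time not given.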 Unmarked entries are inactive. No sequences are given here. The record does not give: the amount of reagent, the time to read-out.

- Assay: 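Kinase knock-downs that reduce colorectal cancer cell viability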 (primary screen)
- Cell system: NCI-H630 human colorectal cancer cells
- Knock-down reagent: siRNA pool against human genes
- Conditions: anchor drugs BYL719 at 1 µM, cetuximab at 5 µg/ml or trametinib at 10 nM, or DMSO vehicle alone; exposure time not given
- Measured: 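Replicate-averaged viability as a fraction of non-targeting control, knock-down-alone robust z-score, and per-drug synergy scores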
- Reading the numbers: viability z-score, knock-down alone: higher = more viable cells, weaker knock-down effect; viability vs control, knock-down alone: higher = more viable cells; synergy score with trametinib: higher = stronger synergistic killing with trametinib; synergy score with BYL719: higher = stronger synergistic killing with BYL719; synergy score with cetuximab: higher = stronger synergistic killing with cetuximab
- Active means: 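a gene is called essential when its knock-down-alone viability robust z-score is below -3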
- Calls: active = essential when knocked down alone; inactive = not essential alone

gene	viability z-score, knock-down alone	viability vs control, knock-down alone (fraction of control)	synergy score with trametinib	synergy score with BYL719	synergy score with cetuximab
FGFR2	0.464	1	-0.0479	-0.0224	0.0141
ROCK1	0.464	1	-0.0479	-0.0814	-0.0975
PHKA1	0.464	1	-0.0479	-0.0814	-0.00488
NEK4	0.231	0.991	-0.0563	-0.0895	0.0838
MAP3K2	0.464	1	-0.0479	-0.0814	0.0472
CSNK1G1	0.423	0.998	-0.039	-0.0828	-0.0179
CNOT1	-3.26 (active)	0.859	-0.0293	-0.00737	-0.0294
IPPK	0.464	1	-0.0479	0.0153	0.0263
ADK	0.464	1	-0.0479	-0.0814	0.135
NEK6	0.464	1	-0.0239	-0.000191	-0.00921
KMT2B	-1.49	0.926	-0.0851	-0.066	-0.0338
RSKR	0.464	1	-0.0479	0.0323	0.149
CAMKK1	0.431	0.999	-0.049	-0.0722	0.0329
ACO1	0.464	1	-0.0479	-0.0786	0.0156
FGFR1	0.318	0.994	-0.0531	-0.0865	-0.0303
UHMK1	-1.19	0.938	-0.0877	-0.122	-0.11
PEAK1	-0.927	0.947	-0.098	0.0381	-0.0417
STRADB	0.464	1	-0.0413	0.0125	-0.121
PRKCG	0.464	1	-0.0479	-0.0509	-0.0321
MKNK2	0.464	1	-0.0479	-0.0814	-0.044
PRKAR2A	0.305	0.994	-0.0536	0.0233	-0.0115
VRK2	-1.8	0.914	-0.129	-0.135	0.0909
PKM	0.464	1	-0.0479	0.0259	0.0465
PRKCD	-0.997	0.945	0.0305	-0.0339	0.0557

Continued, starting with the last 5 of the part before.
gene	viability z-score, knock-down alone	viability vs control, knock-down alone (fraction of control)	synergy score with trametinib	synergy score with BYL719	synergy score with cetuximab
MKNK2	0.464	1	-0.0479	-0.0814	-0.044
PRKAR2A	0.305	0.994	-0.0536	0.0233	-0.0115
VRK2	-1.8	0.914	-0.129	-0.135	0.0909
PKM	0.464	1	-0.0479	0.0259	0.0465
PRKCD	-0.997	0.945	0.0305	-0.0339	0.0557
PRKAA2	0.0295	0.984	-0.0171	-0.0562	-0.0333
RPS6KB1	0.464	1	0.00273	0.00716	0.13
MAPK15	0.464	1	-0.0479	-0.0184	-0.0294
PANK4	0.464	1	-0.0169	0.0704	0.0914
DYRK1B	-1.91	0.91	-0.0749	-0.0971	0.0466
KDR	0.464	1	-0.0267	-0.0814	-0.00452
NUCKS1	0.464	1	-0.0479	-0.0309	0.0727
PFKM	0.464	1	-0.0429	-0.0232	0.0844
MAP3K15	0.464	1	-0.0479	-0.0336	0.0045
TCF12	0.464	1	-0.0479	-0.0814	0.0314
ETNK2	0.464	1	-0.0427	0.163	0.00769
SLK	0.464	1	-0.0479	0.029	-0.0803
PRKACB	0.464	1	-0.0479	0.0829	-0.0141
IKBKB	0.464	1	0.0357	0.0194	0.0355
DDR1	0.464	1	-0.0479	-0.0814	0.0541
LIMK1	0.464	1	0.0318	-0.0814	-0.0273
PHKG1	-2.43	0.89	-0.152	-0.108	-0.17
PTPN11	0.464	1	-0.0479	-0.0814	-0.0239
PHKA2	-0.103	0.979	-0.024	-0.101	-0.0347
CDK11B	0.464	1	-0.0479	0.0289	-0.0446
DYRK3	-1.48	0.926	-0.0559	-0.149	-0.135
RPS6KL1	0.464	1	-0.0479	-0.0814	-0.0047
MYLK4	0.464	1	0.0565	0.0424	0.0688
PDXK	-0.827	0.951	-0.0943	-0.122	-0.141
HASPIN	0.464	1	-0.0479	-0.036	0.0308
MAP2K7	0.464	1	-0.0292	0.0479	0.134
PRKG1	-0.208	0.975	-0.0721	0.021	0.0134
ITPKC	-0.105	0.978	-0.0263	-0.101	-0.021
PAK4	0.464	1	-0.0459	-0.0814	-0.0102
FN3K	-0.641	0.958	-0.0655	0.0342	0.0456
CAMK1D	0.464	1	-0.0479	-0.0814	0.104
CDK12	0.464	1	-0.0479	-0.0106	-0.089
NUP98	-0.82	0.951	-0.0182	-0.0651	0.0965
PRPS1L1	0.41	0.998	-0.0246	-0.042	-0.0374
DAPK1	0.464	1	-0.0452	0.028	0.0332
HIPK1	0.464	1	-0.0431	-0.0814	-0.00132
DCK	-4 (active)	0.831	-0.192	0.14	-0.0169
CDC42BPA	0.464	1	-0.046	0.0244	0.0585
PFKL	-0.326	0.97	-0.024	-0.109	0.00812
